Reference: the supplement of paper PMC4683952
Counter-ions that a name gives are not always drawn. The list shows a part of the results. No stated cut-off is given here; in the data, active = 2.5 or more and inactive = the rest. Most values lie within the scatter of the assay; repeated measurements hardly agree.

What follows are compounds tested on Lgr5 (MarsCy1-Lgr5-EGFP, U2OS) (assay: cell-surface Lgr5 expression (SCi1 fluorescence, background-subtracted) relative to WT control (fold of WT control); higher = more Lgr5 at the plasma membrane). Settings: U2OS MarsCy1-Lgr5-EGFP stable; treatment time: overnight; library: Prestwick; 20 µM.

Row | Compound | cell-surface Lgr5 expression
1 | CNC(C)(C)Cc1ccccc1 [Mephentermine hemisulfate] | inactive: 1.94
2 | CN1Cc2c(ccc3c2OCO3)C2C(O)Cc3cc4c(cc3C21)OCO4 (stereo not drawn) [Chelidonine (+)] | inactive: 1.67
3 | CN1[C@@H]2CC[C@H]1C[C@@H](OC(=O)C(CO)c1ccccc1)C2 (stereo partly drawn) [Atropine sulfate monohydrate] | inactive: 1.45
4 | CC(C)C[C@H]1C(=O)N2CCC[C@H]2[C@]2(O)O[C@](NC(=O)[C@@H]3C=C4c5cccc6[nH]c(Br)c(c56)C[C@H]4N(C)C3)(C(C)C)C(=O)N12 [Bromocryptine mesylate] | inactive: 0.718
5 | CN1CCc2cc3c(cc2C1O)OCO3 (stereo not drawn) [Hydrastinine hydrochloride] | inactive: 2.4
6 | CCNCC(O)c1cccc(O)c1 (stereo not drawn) [Etilefrine hydrochloride] | inactive: 1.51
7 | CN(C)C(=O)Oc1cccc([N+](C)(C)C)c1 [Neostigmine bromide] | inactive: 1.33
8 | CNC(=O)Oc1ccc2c(c1)[C@]1(C)CCN(C)[C@@H]1N2C [Eserine sulfate, physostigmine sulfate] | inactive: 2.13
9 | C[C@@H]1O[C@@H](O[C@@H]2C=C3CC[C@@H]4[C@H](CC[C@]5(C)[C@@H](c6ccc(=O)oc6)CC[C@]45O)[C@@]3(C)CC2)[C@H](O)[C@H](O)[C@H]1O [Proscillaridin A] | inactive: 0.368
10 | C#CCN(C)[C@H](C)Cc1ccccc1 [Selegiline hydrochloride] | inactive: 2.06
11 | C[C@]12CC[C@@H](O)C[C@H]1CC[C@@H]1[C@@H]2CC[C@]2(C)C(=O)CC[C@@H]12 [3-alpha-Hydroxy-5-beta-androstan-17-one] | inactive: 1.84
12 | O=c1[nH]c2ccccc2n1C1CCN(CCCC(c2ccc(F)cc2)c2ccc(F)cc2)CC1 [Pimozide] | inactive: 0.896
13 | Cc1cc2c(C(C)C)c(O)c(O)c(C=O)c2c(O)c1-c1c(C)cc2c(C(C)C)c(O)c(O)c(C=O)c2c1O [Gossypol] | inactive: 1.64
14 | CC[C@H]1CN2CC[C@H]1C[C@H]2[C@H](O)c1ccnc2ccc(OC)cc12 [Hydroquinine hydrobromide hydrate] | inactive: 2.17
15 | NCCC(O)C(=O)NC1CC(N)C(OC2OC(CN)C(O)[C@H](O)[C@@H]2N)[C@H](OC2O[C@H](CO)[C@@H](O)[C@@H]2O)[C@@H]1O (stereo partly drawn) [Butirosin disulfate salt] | inactive: 1.81
16 | CN1CCC2=C[C@H](O)[C@H]3OC(=O)c4cc5c(cc4[C@H]3[C@@H]21)OCO5 [Hippeastrine hydrobromide] | inactive: 1.77
17 | CC1OC(OC2/C=C/C=C/C=C/C=C/CC/C=C/C=C/[C@H](C)[C@@H](O)[C@@H](C)[C@H](C)OC(=O)CC(O)CC(O)CC(O)CCC(O)C(O)C[C@]3(O)CC(O)C(C(=O)O)C(C2)O3)C(O)C(N)C1O (stereo partly drawn) [Nystatine] | inactive: 1.38
18 | CCC(=O)O[C@H]1CC[C@H]2[C@@H]3CCC4=CC(=O)CC[C@]4(C)[C@H]3CC[C@]12C [Testosterone propionate] | inactive: 1.51
19 | COc1ccc(OC)c(C(O)C(C)N)c1 (stereo not drawn) [Methoxamine hydrochloride] | inactive: 2.25

For reference, part of the list above:
Row | Compound | cell-surface Lgr5 expression
10 | C#CCN(C)[C@H](C)Cc1ccccc1 [Selegiline hydrochloride] | inactive: 2.06
11 | C[C@]12CC[C@@H](O)C[C@H]1CC[C@@H]1[C@@H]2CC[C@]2(C)C(=O)CC[C@@H]12 [3-alpha-Hydroxy-5-beta-androstan-17-one] | inactive: 1.84

(list continues)

Row | Compound | cell-surface Lgr5 expression
20 | C[C@@H]1CC[C@]2(NC1)O[C@H]1C[C@H]3[C@@H]4CC=C5C[C@@H](O)CC[C@]5(C)[C@H]4CC[C@]3(C)[C@H]1[C@@H]2C [Solasodine] | active: 2.78
21 | CN1C2CC(=O)CC1C(O)C2 (stereo not drawn) [6-Hydroxytropinone] | inactive: 1.21
22 | O=C(CCCN1CCC(n2c(=O)[nH]c3ccccc32)CC1)c1ccc(F)cc1 [Benperidol] | inactive: 2.18
23 | COc1cc2c(cc1O)C[C@H]1c3c(cc(O)c(OC)c3-2)CCN1C [Boldine] | inactive: 1.66
24 | COc1ccc(C(=O)OC2C[C@H]3CC[C@@H](C2)N3C)cc1OC (stereo partly drawn) [Convolamine hydrochloride] | active: 2.83
25 | C[C@H]1CC[C@]2(NC1)O[C@H]1C[C@H]3[C@@H]4CC[C@H]5C[C@@H](O[C@@H]6O[C@H](CO)[C@H](O[C@@H]7O[C@H](CO)[C@@H](O)[C@H](O[C@@H]8OC[C@@H](O)[C@H](O)[C@H]8O)[C@H]7O[C@@H]7O[C@H](CO)[C@@H](O)[C@H](O)[C@H]7O)[C@H](O)[C@H]6O)CC[C@]5(C)[C@H]4CC[C@]3(C)[C@H]1[C@@H]2C [Tomatine] | inactive: 0.621
26 | C[C@@H]1CN([C@H]2CC[C@](C#N)(c3ccc(F)cc3)CC2)CC[C@]1(C(=O)O)c1ccccc1 [Levocabastine hydrochloride] | inactive: 0.844
27 | C[N+]1(C)CCCC(OC(=O)C(O)(c2ccccc2)c2ccccc2)C1 (stereo not drawn) [Mepenzolate bromide] | active: 3.47
28 | CN1C2CCC1CC(O)C2 (stereo not drawn) [Tropine] | inactive: 0.926
29 | OC(c1ccccc1)(c1ccccc1)C1CCNCC1 [Azacyclonol] | inactive: 0.903
30 | COc1ccc(CC2c3cc(OC)c(OC)cc3CCN2C)cc1OC (racemic) [Laudanosine (R,S)] | inactive: 1.88
31 | CCCC(C)(COC(N)=O)COC(=O)NC(C)C (stereo not drawn) [Carisoprodol] | inactive: 1.27
32 | CCC1(C)CC(=O)NC(=O)C1 [Bemegride] | active: 2.51
33 | C[C@@]12C(=O)OC(=O)[C@]1(C)[C@H]1CC[C@@H]2O1 [Cantharidin] | inactive: 0.658
34 | CC(=O)[C@H]1CC[C@H]2[C@@H]3CC[C@H]4C[C@H](O)CC[C@]4(C)[C@H]3C(=O)C[C@]12C [Alfaxalone] | inactive: 0.985
35 | CN1C(=O)CCS(=O)(=O)C1c1ccc(Cl)cc1 (stereo not drawn) [Chlormezanone] | inactive: 1.13
36 | CO[C@@H]1C=C2CCN(C)[C@@H]2C2c3cc4c(cc3C(=O)OC21)OCO4 (stereo partly drawn) [Ungerine nitrate] | inactive: 1.84
37 | CC[N+]1(C)CCCC(OC(=O)C(O)(c2ccccc2)c2ccccc2)C1 (stereo not drawn) [Pipenzolate bromide] | inactive: 2.02
38 | CCCCCC[C@H]1C(=O)O[C@H](C)[C@H](NC(=O)c2cccc(NC=O)c2O)C(=O)O[C@@H](C)[C@@H]1OC(=O)CC(C)C [Antimycin A] | inactive: 1.03
